Assay results reported in PubChem BioAssay AID540276 (National Center for Advancing Translational Sciences (NCATS), 2011).
Out of some 300,000 compounds screened, about 5,400 (1.8%) were called active. The inconclusive results got no clear call from the source; some entries with a clear call stand among them for comparison. The call rests on the fitted dose curve; tested in HEK293 cells. Where the call is inconclusive, the potency comes from a doubtful curve fit.

Assay: qHTS for inhibitors of binding or entry into cells for Marburg Virus
Settings: Marburg virus pseudotyped entry inhibition, cell reporter; activity change, negative = inhibition: at 37.8 µM (top of the series) unless noted
On the % scale 0 is the no-effect control and ±100 the full control effect; potency means the concentration at half of the fitted maximal effect.

| SMILES | Potency | activity change, negative = inhibition |
| --- | --- | --- |
| Cc1c(Cc2ccccc2)sc(/N=C/c2ccc3ccccc3c2)c1C(N)=O | inconclusive: 0.631 µM [inhibitor, full curve] |  |
| COc1ccc2oc(=Nc3cc(F)ccc3F)c(C(N)=O)cc2c1 | inconclusive: 0.562 µM [inhibitor, full curve, poor fit] |  |
| Cc1ccccc1OCC(=O)NCC(c1cccs1)N1CCOCC1 (stereo unspecified) |  | inactive: -11.5% [at 46.1 µM] |
| COc1ccc(Cl)cc1C(=O)CSc1nnnn1C1CCCCC1 | inconclusive: 22.4 µM [activator, single point] |  |
| CCn1c(SCC(=O)Nc2ccc(N3CCOCC3)cc2)nnc1-c1ccc(OC)cc1 | inconclusive: 6.51 µM [activator, full curve, poor fit] |  |
| COc1cc(/C=C/c2ccc3cccc(OC)c3n2)c(OC(C)=O)c([N+](=O)[O-])c1 | inconclusive: 32.6 µM [inhibitor, single point] |  |
| CCOC(=O)c1[nH]c2c(c1Cc1ccccc1)C(=O)CC(c1ccc(C(C)(C)C)cc1)C2 (stereo unspecified) | inconclusive: 1.58 µM [inhibitor, full curve, poor fit] |  |
| CCN(CC)S(=O)(=O)c1cccc(-c2nnc(SCC(=O)NC3CCCCCCC3)n2N)c1 | inconclusive: 20.6 µM [inhibitor, single point] |  |
| CCOC(=O)c1c(NC(=O)c2ccc(-n3cnnn3)cc2)sc2c1CCCC2 | inconclusive: 12.6 µM [inhibitor, single point] |  |
| Cc1nn(CCOc2ccccc2)c(=O)n1-c1cccc(F)c1 |  | inactive: 6.86% |
| COc1ccc(CNC(=O)CCN2C(=O)[C@@H]3Cc4ccccc4CN3C2=O)cc1 | inconclusive: 35.5 µM [activator, single point] |  |
| CN(CCOc1ccccc1)CC(=O)Nc1ccc(Cl)cc1[N+](=O)[O-] | inconclusive: 3.98 µM [inhibitor, partial curve, poor fit] |  |
| Cc1ccc(C(=O)N(CC(=O)Nc2sc(C)c(C)c2C(N)=O)C2CCCC2)cc1 | inconclusive: 35.5 µM [inhibitor, single point] |  |
| CC(C)NCC(O)COCCOc1ccc(C(C)(C)C)cc1 (stereo unspecified) | inconclusive: 35.5 µM [inhibitor, single point] |  |
| COc1ccc(CCNCC(=O)Nc2ccc(C)c(Br)c2)cc1OC | inconclusive: 35.5 µM [inhibitor, single point] |  |
| CC(CN1CCOCC1)OC(=O)COc1ccc(F)cc1 (stereo unspecified) |  | inactive: 4.88% |
| CCCOc1ccc(/C=C/C(=O)N2CCN(c3ccccn3)CC2)cc1 |  | inactive: 1.6% |
| Cc1cccc(NC(=O)CSCC(=O)Nc2ccccc2C(=O)NC2CC2)c1 |  | inactive: -3.15% [at 46.1 µM] |
| O=C(NCC(c1ccco1)N1CCc2ccccc21)c1ccc([N+](=O)[O-])cc1 (stereo unspecified) | inconclusive: 11.2 µM [inhibitor, single point] |  |
| Cc1cc(C)c(C)c(S(=O)(=O)NCc2ccc(C(=O)N3CCN(C)CC3)cc2)c1C |  | inactive: -13.7% |
| Cc1c(C(=O)OC2CCC(C)CC2)[nH]c2c1C(=O)CC(c1ccc(F)cc1)C2 (stereo unspecified) |  | inactive: 4.2% [at 46.1 µM] |
| Cc1ccc(Sc2c(C)nn(C(C)(C)C)c2OC(=O)CC(C)C)cc1 |  | inactive: -1.79% [at 46.1 µM] |
| Cc1ccc(S(=O)(=O)Nc2cccc(C(=O)NCC3(N4CCCCC4)CCCCC3)c2)cc1F | inconclusive: 7.08 µM [inhibitor, full curve, poor fit] |  |
| O=C(O)c1ccnc(Cl)c1 | inconclusive: 2.82 µM [inhibitor, single point] |  |

| SMILES | Potency | activity change, negative = inhibition |
| --- | --- | --- |
| O=C(NCC1OCCc2ccccc21)c1ccc(NC(=O)c2ccccc2Cl)cc1 (stereo unspecified) | active: 7.94 µM |  |
| CN(Cc1ccccc1)C(=O)c1cccc(C(=O)N(C)Cc2ccccc2)c1 | inconclusive: 14.1 µM [inhibitor, single point] |  |
| COc1ccc(NC(=S)N2CCC(NC(=O)c3ccccc3C)CC2)cc1 | inconclusive: 31.6 µM [activator, single point] |  |
| COc1ccccc1NC(=O)c1ncn(-c2ccccc2)n1 | inconclusive: 10 µM [activator, partial curve, poor fit] |  |
| CCCCN1C(=O)c2[nH]nc(-c3ccccc3O)c2C1c1ccc(OCc2ccccc2)c(OC)c1 (stereo unspecified) | inconclusive: 25.1 µM [inhibitor, single point] |  |
| Cc1ccc(C(=O)N/N=C\c2ccc[nH]2)cn1 |  | inactive: -23.7% |
| Cc1ccc(O)c(NC(=O)c2cc(-c3ccco3)on2)c1 | inconclusive: 7.08 µM [inhibitor, partial curve, poor fit] |  |
| COc1ccc(OC)c(Nc2nc3ccccc3nc2-n2nc(C)cc2C)c1 |  | inactive: -2.93% [at 46.1 µM] |
| O=C(Cn1c(=O)c2c3c(sc2n(Cc2ccccc2)c1=O)CCCC3)NCCO | inconclusive: 7.94 µM [inhibitor, partial curve, poor fit] |  |
| CC(=O)Nc1cc2c(cc1NC(=O)Cn1nc(-c3ccccc3)ccc1=O)OCCO2 |  | inactive: 11.2% [at 46.1 µM] |
| CC1CC(C)CN(CCCNS(=O)(=O)c2cc(Br)cc3c2N(C(=O)C2CC2)CC3)C1 (stereo unspecified) | inconclusive: 20 µM [inhibitor, partial curve, poor fit] |  |
| Cc1nn2c(=O)cc(COc3ccc(/C=C(\C#N)C(=O)Nc4ccccc4C)cc3)nc2s1 |  | inactive: 7.53% [at 46.1 µM] |
| CC(C)(C)c1ccc(-c2nc3c(C#N)c(-c4ccc5c(c4)OCO5)ccn3n2)cc1 |  | inactive: -4.09% |
| CCOc1cc(/C=N\NC(=O)c2c(C)nc3ccccn23)ccc1O |  | inactive: 6.62% |
| OC(COc1ccc(OCC(O)CN2CCN(Cc3ccccc3)CC2)cc1)CN1CCN(Cc2ccccc2)CC1 (stereo unspecified) | inconclusive: 5.62 µM [inhibitor, full curve, poor fit] |  |
| CCCCN(CCCC)CCCNC(=O)c1ccc2nc(N3CCCCC3)sc2c1 | inconclusive: 6.31 µM [inhibitor, single point] |  |
| CC1(C)CC(=O)C(C(=S)Nc2ccccc2)=C(NC2CC(C)(C)NC(C)(C)C2)C1 | inconclusive: 12.6 µM [inhibitor, partial curve, poor fit] |  |
| COC(=O)c1sc(S(=O)(=O)N2CCN(c3ccccc3F)CC2)c(C(=O)OC)c1C | inconclusive: 11.2 µM [inhibitor, partial curve, poor fit] |  |
| O=C(c1cccc(-c2nnc(-c3ccccc3)o2)c1)N1CCCCCC1 | inconclusive: 32.6 µM [inhibitor, single point] |  |
| CNC(=O)c1cc2ccc(OC)cc2oc1=O |  | inactive: 28.4% [at 46.1 µM] |
| CCCN(Cc1ccc(N(CC)CC)cc1)CC1CC1 | inconclusive: 23.1 µM [inhibitor, single point] |  |
| c1ccc(-c2cc(N3CCCCC3)ncn2)cc1 | inconclusive: 4.47 µM [activator, single point] |  |
| Cc1cc(C)nc(N/N=C/c2ccccc2OCc2ccccc2)n1 | inconclusive: 17.8 µM [inhibitor, single point] |  |
| CCc1ccc(/C=C(\C#N)C(=O)NC2CCS(=O)(=O)C2)cc1 (stereo unspecified) | inconclusive: 35.5 µM [inhibitor, single point] |  |

Grouped by structure: the compounds so far with two or more sulfur atoms (2)

| SMILES | Potency | activity change, negative = inhibition |
| --- | --- | --- |
| CCN(CC)S(=O)(=O)c1cccc(-c2nnc(SCC(=O)NC3CCCCCCC3)n2N)c1 | inconclusive: 20.6 µM [inhibitor, single point] |  |
| COC(=O)c1sc(S(=O)(=O)N2CCN(c3ccccc3F)CC2)c(C(=O)OC)c1C | inconclusive: 11.2 µM [inhibitor, partial curve, poor fit] |  |

Additional structures follow:

| SMILES | Potency | activity change, negative = inhibition |
| --- | --- | --- |
| CCOc1ccc(C(C#N)N2CCOCC2)cc1OC (stereo unspecified) | inconclusive: 0.562 µM [inhibitor, full curve, poor fit] |  |
| COc1ccc(S(=O)(=O)Oc2cc(C(=S)N3CCOCC3)ccc2OC)cc1 | inconclusive: 35.5 µM [inhibitor, single point] |  |
| CN(CC(=O)Nc1ccc(Cl)cc1)C(=O)c1ccc(COc2ccccc2)cc1 | inconclusive: 5.62 µM [activator, single point] |  |
| CC(C)Nc1nc(NC(N)=S)nc(NC(C)C)n1 | inconclusive: 20.6 µM [activator, partial curve, poor fit] |  |
| COc1cccc(NC(=O)c2oc3ccccc3c2NC(=O)c2ccccc2C)c1 |  | inactive: 0.3% [at 46.1 µM] |
| Cc1ccc(S(=O)(=O)/N=C2\C=C(NS(=O)(=O)c3ccccc3)C(=O)c3ccccc32)cc1 |  | inactive: -1.35% [at 46.1 µM] |
| COc1ccc(CN2CCN(C)CC2)cc1OCc1ccccc1 |  | inactive: 13.2% |
| CCOc1ccc(CNC(=O)c2ccc(CSc3nc4ccncc4n3Cc3ccc(F)cc3)cc2)cc1 | inconclusive: 35.5 µM [inhibitor, single point] |  |
| CCCOc1ccc2c3c(c(=O)oc2c1OCCC)CCC3 | inconclusive: 18.3 µM [inhibitor, single point] |  |
| COc1ccc(NC(=O)CSc2nnc(C3CCCCC3)n2-c2ccccc2)cc1 | inconclusive: 29.1 µM [inhibitor, single point] |  |
| O=C(c1ccco1)N1CCN(Cc2nnc(-c3cccc(Br)c3)o2)CC1 |  | inactive: 8.71% [at 46.1 µM] |
| CCCC(=O)Nc1ccc(C(=O)NCCc2ccc(F)cc2)cc1 | inconclusive: 35.5 µM [activator, single point] |  |
| Cc1ccc(SCC(=O)N(C)C2CCS(=O)(=O)C2)c(C)c1 (stereo unspecified) | inconclusive: 35.5 µM [inhibitor, single point] |  |
| Cc1noc(C)c1S(=O)(=O)Nc1ccccc1N1CCOCC1 |  | inactive: -6.23% |
| Cc1cccc(OCCn2c(=S)[nH]c3ccccc32)c1 |  | inactive: 2.76% |
| Brc1ccsc1/C=N/Nc1ccccc1 |  | inactive: 2.07% |
| CCOc1cccc2cc(-c3csc(NC(=O)CCC(=O)N4CCC(C)CC4)n3)c(=O)oc12 |  | inactive: -0.812% |
| Cc1sc(/N=C/c2ccccc2O)c(C#N)c1C |  | inactive: -0.297% |
| CCCCn1c(SCC(=O)c2cc(OC)ccc2OC)nc2cc(S(N)(=O)=O)ccc21 | inactive |  |
| Cc1ccc(-c2nnc(CCC(=O)N(C)Cc3nccs3)o2)s1 | inconclusive: 7.08 µM [activator, full curve] |  |
| Cn1nc(C(C)(C)C)cc1NC(=O)Nc1cc(Cl)cc(Cl)c1 | inconclusive: 35.5 µM [inhibitor, single point] |  |
| N/C(Cc1ccc([N+](=O)[O-])cc1)=N\OC(=O)Cc1ccccc1 |  | inactive: -2.07% |
| Cn1c(CNS(=O)(=O)c2ccc(Cl)cc2)cc(=O)n(C)c1=O | inconclusive: 1.58 µM [activator, single point] |  |
